Article PMC6271298, “Pharmacophore Generation from a Drug-like Core Molecule Surrounded by a Library Peptide via the 10BASEd-T on Bacteriophage T7” (Molecules, 2014)
No constants are given. Whether binding was seen depends on the method and setting. Some entries that bind do so weakly or less than the wild type.

Biological target: streptavidin (UniProt P22629)
Assay: ELISA; 830 pmol streptavidin immobilised per well, blocked with 1% BSA; about 2.0 × 10^10 PFU of T7 phage in tris-buffered saline with 0.5% Triton X-100, 1 h at 25 °C; detected with T7 tail fiber antibody; both purified

With SGGGAMWCQYHPQNCYKM (Sal-conjugated Cys at the two designated cysteines) [Sal-conjugated T7 phage-displayed peptide, clone 7 (-A-M-W-C-Q-Y-H-P-Q-N-C-Y-K-M)] the binding was “binds”.

For SGGGRIVCVQHPQFCQY (Sal-conjugated Cys at the two designated cysteines) [Sal-conjugated T7 phage-displayed peptide, clone 2 (-R-I-V-C-V-Q-H-P-Q-F-C-Q-Y)], the binding was “binds”.
